# According to the supplement of paper PMC8728848:
# The list shows a part of the results.
# B1: CBP21 (Serratia marcescens), O83009 (protein)
# chain: MNKTSRTLLSLGLLSAAMFGVSQQANAHGYVESPASRAYQCKLQLNTQCGSVQAEPQSVEGLKGFPQAGPADGHIASADKSTFFELDQQTPTRWNKLNLKTGPNSFTWKLTARHSTTSWRYFITKPNWDASQPLTRASFDLTPFCQFNDGGAIPAAQVTHQCNIPADRSGSHVILAVWDIADTANAFYQAIDVNLSK
# Experiments:
# Experiment in all cases: glycan array binding signal (z-score within array); higher = stronger binding
# Conditions in all cases: glycan notation: IUPAC condensed, linker removed; mutation: Y54A
# [1] = target: GlcNAc(b1-3)Gal(b1-3)GalNAc
# Outline: (§1)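 The binding signal is a Z-score computed within each array and averaged over linkers. Arrays of the same protein sequence at different concentrations or buffers were also averaged together. Data originate from 3228 arrays in the Consortium for Functional Glycomics database, kept only where the protein sequence was available.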
# [2] = target: GlcNAc(b1-3)Gal(b1-4)Glc
# Outline: as §1
# [3] = target: GlcNAc(b1-3)Gal(b1-4)GlcNAc
# Outline: as §1
# [4] = target: GlcNAc(b1-3)Gal(b1-4)GlcNAc(b1-2)Man(a1-3)[GlcNAc(b1-3)Gal(b1-4)GlcNAc(b1-2)Man(a1-6)]Man(b1-4)GlcNAc(b1-4)GlcNAc
# Outline: as §1
# [5] = target: GlcNAc(b1-3)Gal(b1-4)GlcNAc(b1-2)Man(a1-3)[GlcNAc(b1-3)Gal(b1-4)GlcNAc(b1-2)Man(a1-6)]Man(b1-4)GlcNAc(b1-4)[Fuc(a1-6)]GlcNAc
# Outline: as §1
# [6] = target: GlcNAc(b1-3)Gal(b1-4)GlcNAc(b1-2)[GlcNAc(b1-3)Gal(b1-4)GlcNAc(b1-6)]Man(a1-6)[GlcNAc(b1-3)Gal(b1-4)GlcNAc(b1-2)Man(a1-3)]Man(b1-4)GlcNAc(b1-4)GlcNAc
# Outline: as §1
# [7] = target: GlcNAc(b1-3)Gal(b1-4)GlcNAc(b1-3)Gal(b1-4)GlcNAc
# Outline: as §1
# [8] = target: GlcNAc(b1-3)Gal(b1-4)GlcNAc(b1-3)Gal(b1-4)GlcNAc(b1-2)Man(a1-3)[GlcNAc(b1-3)Gal(b1-4)GlcNAc(b1-3)Gal(b1-4)GlcNAc(b1-2)Man(a1-6)]Man(b1-4)GlcNAc(b1-4)GlcNAc
# Outline: as §1
# [9] = target: GlcNAc(b1-3)Gal(b1-4)GlcNAc(b1-3)Gal(b1-4)GlcNAc(b1-2)Man(a1-3)[GlcNAc(b1-3)Gal(b1-4)GlcNAc(b1-3)Gal(b1-4)GlcNAc(b1-2)Man(a1-6)]Man(b1-4)GlcNAc(b1-4)[Fuc(a1-6)]GlcNAc
# Outline: as §1
# [10] = target: GlcNAc(b1-3)Gal(b1-4)GlcNAc(b1-3)Gal(b1-4)GlcNAc(b1-2)[GlcNAc(b1-3)Gal(b1-4)GlcNAc(b1-3)Gal(b1-4)GlcNAc(b1-6)]Man(a1-6)[GlcNAc(b1-3)Gal(b1-4)GlcNAc(b1-3)Gal(b1-4)GlcNAc(b1-2)Man(a1-3)]Man(b1-4)GlcNAc(b1-4)[Fuc(a1-6)]GlcNAc
# Outline: as §1
# [11] = target: GlcNAc(b1-3)Gal(b1-4)GlcNAc(b1-3)Gal(b1-4)GlcNAc(b1-3)Gal(b1-4)GlcNAc(b1-2)Man(a1-3)[GlcNAc(b1-3)Gal(b1-4)GlcNAc(b1-3)Gal(b1-4)GlcNAc(b1-3)Gal(b1-4)GlcNAc(b1-2)Man(a1-6)]Man(b1-4)GlcNAc(b1-4)GlcNAc
# Outline: as §1
# [12] = target: GlcNAc(b1-3)Gal(b1-4)GlcNAc(b1-3)Gal(b1-4)GlcNAc(b1-3)Gal(b1-4)GlcNAc(b1-2)Man(a1-3)[GlcNAc(b1-3)Gal(b1-4)GlcNAc(b1-3)Gal(b1-4)GlcNAc(b1-3)Gal(b1-4)GlcNAc(b1-2)Man(a1-6)]Man(b1-4)GlcNAc(b1-4)[Fuc(a1-6)]GlcNAc
# Outline: as §1
# [13] = target: GlcNAc(b1-3)Gal(b1-4)GlcNAc(b1-3)Gal(b1-4)GlcNAc(b1-3)Gal(b1-4)GlcNAc(b1-2)[GlcNAc(b1-3)Gal(b1-4)GlcNAc(b1-3)Gal(b1-4)GlcNAc(b1-3)Gal(b1-4)GlcNAc(b1-6)]Man(a1-6)[GlcNAc(b1-3)Gal(b1-4)GlcNAc(b1-3)Gal(b1-4)GlcNAc(b1-3)Gal(b1-4)GlcNAc(b1-2)Man(a1-3)]Man(b1-4)GlcNAc(b1-4)[Fuc(a1-6)]GlcNAc
# Outline: as §1
# [14] = target: GlcNAc(b1-3)Gal(b1-4)GlcNAc(b1-3)Gal(b1-4)GlcNAc(b1-3)Gal(b1-4)GlcNAc(b1-3)Gal(b1-4)GlcNAc(b1-2)Man(a1-3)[GlcNAc(b1-3)Gal(b1-4)GlcNAc(b1-3)Gal(b1-4)GlcNAc(b1-3)Gal(b1-4)GlcNAc(b1-3)Gal(b1-4)GlcNAc(b1-2)Man(a1-6)]Man(b1-4)GlcNAc(b1-4)GlcNAc
# Outline: as §1
# [15] = target: GlcNAc(b1-3)Gal(b1-4)GlcNAc(b1-3)Gal(b1-4)GlcNAc(b1-3)Gal(b1-4)GlcNAc(b1-3)Gal(b1-4)GlcNAc(b1-2)Man(a1-3)[GlcNAc(b1-3)Gal(b1-4)GlcNAc(b1-3)Gal(b1-4)GlcNAc(b1-3)Gal(b1-4)GlcNAc(b1-3)Gal(b1-4)GlcNAc(b1-2)Man(a1-6)]Man(b1-4)GlcNAc(b1-4)[Fuc(a1-6)]GlcNAc
# Outline: as §1
# [16] = target: GlcNAc(b1-3)Gal(b1-4)GlcNAc(b1-3)Gal(b1-4)GlcNAc(b1-3)Gal(b1-4)GlcNAc(b1-3)Gal(b1-4)GlcNAc(b1-2)[GlcNAc(b1-3)Gal(b1-4)GlcNAc(b1-3)Gal(b1-4)GlcNAc(b1-3)Gal(b1-4)GlcNAc(b1-3)Gal(b1-4)GlcNAc(b1-6)]Man(a1-6)[GlcNAc(b1-3)Gal(b1-4)GlcNAc(b1-3)Gal(b1-4)GlcNAc(b1-3)Gal(b1-4)GlcNAc(b1-3)Gal(b1-4)GlcNAc(b1-2)Man(a1-3)]Man(b1-4)GlcNAc(b1-4)[Fuc(a1-6)]GlcNAc
# Outline: as §1
# [17] = target: GlcNAc(b1-3)Gal(b1-4)GlcNAc(b1-3)Gal(b1-4)GlcNAc(b1-3)GalNAc
# Outline: as §1
# [18] = target: GlcNAc(b1-3)Gal(b1-4)GlcNAc(b1-3)GalNAc
# Outline: as §1
# [19] = target: GlcNAc(b1-3)Gal(b1-4)GlcNAc(b1-3)[GlcNAc(b1-3)Gal(b1-4)GlcNAc(b1-3)]GalNAc
# Outline: as §1
# [20] = target: GlcNAc(b1-3)Gal(b1-4)GlcNAc(b1-6)[Gal(b1-3)]GalNAc
# Outline: as §1
# [21] = target: GlcNAc(b1-3)Gal(b1-4)GlcNAc(b1-6)[GlcNAc(b1-3)Gal(b1-3)]GalNAc
# Outline: as §1
# [22] = target: GlcNAc(b1-3)Gal(b1-4)GlcNAc(b1-6)[GlcNAc(b1-3)]Gal(b1-4)GlcNAc
# Outline: as §1
# [23] = target: GlcNAc(b1-3)GalNAc
# Outline: as §1
# [24] = target: GlcNAc(b1-3)Man
# Outline: as §1
# [25] = target: GlcNAc(b1-3)[GlcNAc(b1-4)][GlcNAc(b1-6)]GlcNAc
# Outline: as §1
# [26] = target: GlcNAc(b1-3)[GlcNAc(b1-6)]Gal(b1-4)GlcNAc
# Outline: as §1
# [27] = target: GlcNAc(b1-3)[GlcNAc(b1-6)]GalNAc
# Outline: as §1
# [28] = target: GlcNAc(b1-4)Gal(b1-4)GlcNAc
# Outline: as §1
# [29] = target: GlcNAc(b1-4)GlcNAc
# Outline: as §1
# [30] = target: GlcNAc(b1-4)GlcNAc(b1-4)GlcNAc
# Outline: as §1
# [31] = target: GlcNAc(b1-4)GlcNAc(b1-4)GlcNAc(b1-4)GlcNAc(b1-4)GlcNAc
# Outline: as §1
# [32] = target: GlcNAc(b1-4)GlcNAc(b1-4)GlcNAc(b1-4)GlcNAc(b1-4)GlcNAc(b1-4)GlcNAc
# Outline: as §1
# [33] = target: GlcNAc(b1-4)[GlcNAc(b1-6)]GalNAc
# Outline: as §1
# [34] = target: GlcNAc(b1-6)Gal(b1-4)GlcNAc
# Outline: as §1
# [35] = target: GlcNAc(b1-6)GalNAc
# Outline: as §1
# [36] = target: GlcNAc6S(b1-3)Gal(b1-4)GlcNAc
# Outline: as §1
# [37] = target: Kdn(a2-3)Gal(b1-3)GalNAc
# Outline: as §1
# [38] = target: Kdn(a2-3)Gal(b1-3)GlcNAc
# Outline: as §1
# [39] = target: Kdn(a2-3)Gal(b1-4)Glc
# Outline: as §1
# [40] = target: Kdn(a2-3)Gal(b1-4)GlcNAc
# Outline: as §1
# [41] = target: Kdn(a2-3)Gal(b1-4)[Fuc(a1-3)]GlcNAc
# Outline: as §1
# [42] = target: Kdn(a2-6)Gal(b1-4)GlcNAc
# Outline: as §1
# [43] = target: Man(a1-2)Man(a1-2)Man(a1-3)Man
# Outline: as §1
# [44] = target: Man(a1-2)Man(a1-2)Man(a1-6)[Man(a1-3)]Man
# Outline: as §1
# [45] = target: Man(a1-2)Man(a1-3)Man
# Outline: as §1
binder,measurement,setting,value
B1,glycan array binding signal (z-score),[1],1.43
same,glycan array binding signal (z-score),[2],0.599
same,glycan array binding signal (z-score),[3],-0.779
same,glycan array binding signal (z-score),[4],0.437
same,glycan array binding signal (z-score),[5],-2.24
same,glycan array binding signal (z-score),[6],-0.141
same,glycan array binding signal (z-score),[7],-1.2
same,glycan array binding signal (z-score),[8],0.016
same,glycan array binding signal (z-score),[9],-0.869
same,glycan array binding signal (z-score),[10],-0.223
same,glycan array binding signal (z-score),[11],-0.609
same,glycan array binding signal (z-score),[12],-0.372
same,glycan array binding signal (z-score),[13],0.727
same,glycan array binding signal (z-score),[14],2.04
same,glycan array binding signal (z-score),[15],-0.624
same,glycan array binding signal (z-score),[16],-0.172
same,glycan array binding signal (z-score),[17],0.179
same,glycan array binding signal (z-score),[18],0.51
same,glycan array binding signal (z-score),[19],0.778
same,glycan array binding signal (z-score),[20],0.204
same,glycan array binding signal (z-score),[21],-0.49
same,glycan array binding signal (z-score),[22],0.949
same,glycan array binding signal (z-score),[23],-0.565
same,glycan array binding signal (z-score),[24],-0.429
same,glycan array binding signal (z-score),[25],-1.24
same,glycan array binding signal (z-score),[26],-0.334
same,glycan array binding signal (z-score),[27],-0.268
same,glycan array binding signal (z-score),[28],-0.123
same,glycan array binding signal (z-score),[29],-0.27
same,glycan array binding signal (z-score),[30],-0.647
same,glycan array binding signal (z-score),[31],-0.302
same,glycan array binding signal (z-score),[32],-0.484
same,glycan array binding signal (z-score),[33],-0.466
same,glycan array binding signal (z-score),[34],-0.678
same,glycan array binding signal (z-score),[35],-0.468
same,glycan array binding signal (z-score),[36],-0.158
same,glycan array binding signal (z-score),[37],-1.11
same,glycan array binding signal (z-score),[38],0.313
same,glycan array binding signal (z-score),[39],-0.897
same,glycan array binding signal (z-score),[40],-0.375
same,glycan array binding signal (z-score),[41],-1.2
same,glycan array binding signal (z-score),[42],-0.612
same,glycan array binding signal (z-score),[43],-0.42
same,glycan array binding signal (z-score),[44],0.108
same,glycan array binding signal (z-score),[45],-0.532

# Some of the entries so far, with tabs:
binder	measurement	setting	value
B1	glycan array binding signal (z-score)	[5]	-2.24
same	glycan array binding signal (z-score)	[15]	-0.624
same	glycan array binding signal (z-score)	[22]	0.949
same	glycan array binding signal (z-score)	[23]	-0.565
same	glycan array binding signal (z-score)	[24]	-0.429
same	glycan array binding signal (z-score)	[29]	-0.27
same	glycan array binding signal (z-score)	[30]	-0.647
same	glycan array binding signal (z-score)	[31]	-0.302
same	glycan array binding signal (z-score)	[37]	-1.11
same	glycan array binding signal (z-score)	[42]	-0.612
